68 compounds from PubChem BioAssay AID662 (National Center for Advancing Translational Sciences (NCATS), 2007) can be followed below.

The list shows a part of the results. These are further read-outs of the screen, such as a control signal, another cell line or another target. No call is given for them. The list favours compounds with an active or inconclusive main result. Potencies come from curve fits of mixed quality, noted in brackets.

A short description of the test: Cell signaling CRE-BLA (Fsk stim). The settings on record: CHO CRE-bla reporter (cAMP response element driving beta-lactamase), forskolin EC10, beta-lactamase ratio; measured here: 460 nm blue channel. An outline of the steps: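 Using CellSensor CRE-bla CHO cells in Opti-MEM with 0.5% dialyzed FBS, compounds were titrated with EC10 NKH 477 for 3 h at 37 °C. CCF4 ratio (460/530 nm) gave %Activity; AC50 derived.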
Take `O=C(CN1CCN(S(=O)(=O)c2ccc(Cl)cc2)CC1)Nc1ccc2c(c1)OCO2`: the AC50 was 0.158 µM [falling, full curve].

On to `O=C1NC2=C(C(=O)c3ccccc32)C(c2ccccc2)N1` (stereo not drawn), for which the concentration at half-maximal activity (AC50) was 20 µM [rising, single point].

With `COc1cccc(CNCc2ccccn2)c1OC`, the AC50 is 0.794 µM [falling, full curve, poor fit].

For the compound `O=c1n(Cc2ccccc2Cl)c2sc3c(c2c2ncnn12)CCCC3`, the half-maximal activity concentration (AC50) was 2 µM [rising, partial curve, poor fit].

Take `O=C(O)C1CCCCC1C(=O)Nc1cnn(Cc2ccccc2)c1` (stereo not drawn): the AC50 was 0.126 µM [falling, single point].

For `N#CC1=C(N)C(C#N)(C#N)[C@H](c2c(F)cccc2F)[C@H]2CC3(CC=C12)OCCO3`, the AC50 is 25.1 µM [rising, single point].

Turning to `CC1=C(C(=O)OC(C)C)C(c2cccnc2)C2=C(CCCC2=O)N1` (stereo not drawn), the half-maximal activity concentration (AC50) was 12.6 µM [rising, partial curve].

In the case of `COc1ccc(-c2nc(SC)n(C)c(=O)c2C#N)cc1OC`, the AC50 is 5.01 µM [rising, partial curve].

With `Cc1cc(=O)oc2cc(OC(C)C)ccc12`, the half-maximal activity concentration (AC50) is 10 µM [rising, single point].

On to `CC1(C)OC(=O)C(=CNn2cnc3ccccc3c2=O)C(=O)O1`, for which the concentration at half-maximal activity (AC50) was 25.1 µM [rising, single point].

Consider `Cc1cc(C)c(NC(=O)CS(=O)CC(=O)N2CCN(c3ccc(F)cc3)CC2)c(C)c1` (stereo not drawn), for which the AC50 was 3.16 µM [rising, single point].

As for `O=c1c(CCc2ccccc2)nc2cnc(N3CCNCC3)nc2n1Cc1ccc(F)cc1`, the AC50 was 15.8 µM [rising, single point].

For the compound `COc1ccc(NC(=O)C2=C(C)NC(=O)NC2c2cccc(OC)c2OC)c(OC)c1` (stereo not drawn), the concentration at half-maximal activity (AC50) was 1 µM [falling, partial curve, poor fit].

Turning to `Cc1nc2ccccc2c2oc(C(=O)NC3CC3)cc12`, the AC50 was 7.94 µM [rising, partial curve].

In the case of `N#Cc1cc2c(nc1SCc1cccnc1)CCCC2`, the AC50 is 12.6 µM [rising, partial curve].

For `COC(=O)[C@@H]1[C@H]2C[C@H]3c4[nH]c5cc(OC)ccc5c4CCN3C[C@@H]2C[C@@H](OC(=O)c2cc(OC)c(OC)c(OC)c2)[C@@H]1OC`, the AC50 was 0.0251 µM [rising, full curve].

As to `O=C(Nc1cccc2ncccc12)c1cccnc1`, the concentration at half-maximal activity (AC50) is 25.1 µM [rising, single point].

For `Cc1ccc2nc(NC(=O)C3CCCN(S(=O)(=O)c4cnc[nH]4)C3)sc2c1` (stereo not drawn), the AC50 is 10 µM [falling, partial curve].

On to `O=C(O)c1ccc2cc[nH]c2c1`, for which the half-maximal activity concentration (AC50) was 6.31 µM [rising, partial curve].

For `CC(C)[C@H](NC(=O)NC1CCCC1)C(=O)O`, the half-maximal activity concentration (AC50) was 10 µM [falling, partial curve, poor fit].

Turning to `c1ccc2c(Nc3ccncc3)nc(-c3ccc4c(c3)OCO4)nc2c1`, the AC50 was 2 µM [rising, full curve].

In the case of `CN(C)CCCNC(=O)c1ccc2[nH]c3ccccc3c2c1`, the concentration at half-maximal activity (AC50) is 0.316 µM [falling, partial curve].

Regarding `Cc1onc(-c2ccccc2Cl)c1C(=O)NCc1ccco1`, the half-maximal activity concentration (AC50) was 12.6 µM [falling, single point].

Regarding `COc1ccc(C(=O)Nc2ccncc2)cc1OC`, the AC50 was 5.01 µM [rising, partial curve].

As to `CCOC(=O)c1c(NC(=O)CSc2n[nH]c(N)n2)sc(CC)c1C`, the concentration at half-maximal activity (AC50) is 7.94 µM [rising, partial curve].

`CN1CCN(C(CNS(=O)(=O)c2ccc(Cl)cc2)c2cccnc2)CC1` (stereo not drawn): the concentration at half-maximal activity (AC50) was 5.01 µM [falling, partial curve, poor fit].

Turning to `Cc1ccc(C[C@H](Cc2nc3ccccc3[nH]2)c2nc3ccccc3[nH]2)cc1`, the half-maximal activity concentration (AC50) was 15.8 µM [rising, partial curve].

Regarding `O=C(NCc1cccs1)C1CCN(S(=O)(=O)c2cccs2)CC1`, the AC50 is 0.126 µM [falling, full curve, poor fit].

Regarding `Cc1nc2ccc(NC(=O)Nc3ccnc4cccnc34)cc2o1`, the AC50 was 31.6 µM [falling, single point].

As for `CCC(CC)C(=O)Nc1cccc(-c2nc3ccccc3o2)c1`, the AC50 is 12.6 µM [rising, single point].

For the compound `Cc1ccc(-c2ccc(SCC(=O)Nc3nonc3C)nn2)cc1`, the AC50 is 0.398 µM [falling, partial curve].

As to `O=C(Nc1ccc2nsnc2c1)c1cccs1`, the AC50 is 15.8 µM [rising, single point].

On to `Cc1nc2oc3c(NCc4ccccc4)ncnc3c2c2c1COC(C)(C)C2`, for which the AC50 is 10 µM [rising, partial curve].

Regarding `COc1ccc(CNc2ccnc(-c3cccc(C#N)c3)n2)c(OC)c1`, the AC50 is 3.16 µM [rising, single point].

Regarding `CSc1nc2ccccc2n1Cc1cccc(F)c1`, the AC50 was 5.01 µM [rising, partial curve].

`CCCOc1ccc(C(=O)N2CCN(c3ccc(NC(=O)CC)cc3Cl)CC2)cc1`: the half-maximal activity concentration (AC50) was 0.0158 µM [falling, full curve, poor fit].

Regarding `COC(=O)c1cc(OC)c(OC)cc1NC(=O)CCc1ccc(C)o1`, the AC50 was 12.6 µM [rising, single point].

Regarding `CCOc1ccc(C(C)=O)cc1N1C(=O)C2C3C=CC(C3)C2C1=O` (stereo not drawn), the AC50 is 0.00316 µM [falling, full curve, poor fit].

Regarding `CCCn1c(C)nc2c(N(CCN(C)C)Cc3ccccc3)nc(C)nc21`, the concentration at half-maximal activity (AC50) is 10 µM [rising, partial curve].

Take `C=C(C)Cn1c(COc2ccccc2)nnc1SCC(=O)O`: the AC50 was 25.1 µM [rising, single point].

`c1ccc(CNc2nc3ccccc3n3cnnc23)nc1`: the AC50 was 10 µM [rising, partial curve].

In the case of `CCc1cc2c(=O)c(-c3ccon3)c(N)oc2cc1OC`, the AC50 was 12.6 µM [rising, single point].

Consider `N=c1c(C(=O)NCc2ccc(F)cc2)cc2c(=O)n3ccccc3nc2n1CCCN1CCOCC1`, for which the AC50 is 3.16 µM [rising, full curve].

Turning to `Nc1cc(C(=O)O)ccc1Nc1ccccc1`, the AC50 was 0.398 µM [rising, partial curve].

Regarding `Cc1nc2sccn2c1-c1nc(C2CC2)c(C(=O)c2ccc3c(c2)NC(=O)CO3)s1`, the concentration at half-maximal activity (AC50) was 2.51 µM [rising, full curve].

As for `CCOC(=O)N1CCC(NC(=O)CCN2C(=O)C3C4C=CC(C4)C3C2=O)CC1` (stereo not drawn), the AC50 was 0.0251 µM [falling, full curve].

Regarding `CCOC(=O)Cc1csc(NC(=O)c2ccc(S(=O)(=O)N3CCCC3)cc2)n1`, the AC50 was 10 µM [rising, partial curve].

Turning to `CC(=O)c1c(C)[nH]c(C(=O)NCCC2=CCCCC2)c1C`, the AC50 is 5.01 µM [rising, single point].

Regarding `COc1cc(NC(=O)C2CCCN2S(=O)(=O)c2cccc3cccnc23)cc(OC)c1OC` (stereo not drawn), the half-maximal activity concentration (AC50) is 5.01 µM [rising, partial curve].

Turning to `COCCn1c(SCc2ccc(C(=O)OC)o2)nc2ccccc2c1=O`, the concentration at half-maximal activity (AC50) is 10 µM [rising, partial curve].

`O=C(Nc1ccc2c(c1)OCO2)C1CCCCN1S(=O)(=O)c1ccc(F)cc1` (stereo not drawn): the AC50 was 7.94 µM [falling, partial curve].

As to `Cn1cc(-c2nc3cnc(N4CCNCC4)nc3n(Cc3ccc(F)cc3)c2=O)c2ccccc21`, the AC50 is 2.51 µM [rising, full curve].

For the compound `O=C(COC(=O)c1cccc(S(=O)(=O)N2CCOCC2)c1)Nc1ccc2c(c1)OCO2`, the AC50 is 3.98 µM [falling, partial curve].

`CN(C)Cc1ccccc1-c1nc(NCc2cccs2)c2ccccc2n1`: the AC50 is 3.98 µM [rising, partial curve].

For the compound `Fc1cccc(-c2cc3nc4c(c(N5CCOCC5)n3n2)CCCC4)c1`, the AC50 was 2 µM [rising, partial curve].

With `CCc1ccc(-c2nc(-c3ccncc3)no2)cc1`, the AC50 is 1 µM [rising, single point].

With `COc1ccc(C2C(C#N)=C(N)Oc3cc(O)ccc32)cc1OC` (stereo not drawn), the half-maximal activity concentration (AC50) is 10 µM [rising, partial curve].

Regarding `Cc1nn(-c2ccccc2)c2sc(C(=O)OCN3C(=O)c4ccccc4C3=O)cc12`, the half-maximal activity concentration (AC50) was 1.26 µM [rising, full curve].

`O=C(c1ccco1)c1cn[nH]c1-c1ccc(Cl)cc1O`: the AC50 was 7.94 µM [falling, partial curve].

In the case of `CC1(C)C(=O)NCCN1C(=O)CSc1nccc(-c2ccc(Br)cc2)n1`, the concentration at half-maximal activity (AC50) was 25.1 µM [rising, single point].

Take `N[C@H](C(=O)O)[C@@H]1C[C@@H]1C(=O)O`: the half-maximal activity concentration (AC50) was 31.6 µM [falling, single point].

Regarding `CCC(=O)N1CCN(c2ccccc2NC(=O)COc2cc(C)ccc2C(C)C)CC1`, the half-maximal activity concentration (AC50) is 25.1 µM [falling, single point].

For `COc1ccc(NC(=O)CN2C(=O)C(C)Oc3ccccc32)c(OC)c1` (stereo not drawn), the AC50 was 5.01 µM [rising, single point].

As for `Cc1ccc(-c2cc(-c3ccc4c(c3)OCO4)c(C#N)c(N)n2)o1`, the AC50 is 15.8 µM [rising, partial curve].

Consider `Cc1cccc(Nc2nn3c(=O)c4ccccc4nc3s2)c1`, for which the AC50 is 1.58 µM [rising, partial curve, poor fit].

Turning to `CC1CCC(NC(=O)CN2CCC(n3nnc4cc(F)ccc43)CC2)CC1` (stereo not drawn), the half-maximal activity concentration (AC50) was 12.6 µM [rising, partial curve].

On to `COc1cc(C(=O)NCc2cn3ccccc3n2)cc(OC)c1OC`, for which the AC50 was 15.8 µM [rising, partial curve].

In the case of `O=c1oc2c3c4c(cc2cc1-c1nc2ccccc2[nH]1)CCCN4CCC3`, the AC50 is 10 µM [rising, partial curve].
